Some entries share one result that the patent states for a list of compounds.
Legend:
[1] = tested on: Botrytis cinerea; assay: Activity against Botrytis cinerea on bell pepper leaves; type: in vivo; conditions: 250 ppm active compound, sprayed to runoff one day before inoculation; bell pepper seedlings; assessed after 5 days; untreated plants 90% infected
[2] = tested on: Plasmopara viticola; assay: Activity against downy mildew on grapevines (Plasmopara viticola); type: in vivo; conditions: 250 ppm active compound, sprayed to runoff one day before inoculation; potted vines Müller-Thurgau; untreated plants 85% infected

SMILES | infection (extent of the fungal attack on the leaves, determined visually) [1] | infection (extent of the development of the infection on the undersides of the leaves, determined visually) [2]
CCC(C)Nc1c(C(C)C)c(Cl)nc2ncnn12 (racemic) [I-65] | at most 15% | 
CC(C)c1c(Cl)nc2ncnn2c1NC(C)C(C)C (racemic) [I-68] | at most 15% | 
CC(Nc1c(C2CCCC2)c(Cl)nc2ncnn12)C(F)(F)F (racemic) [I-154] | at most 15% | at most 15%
CCc1c(Cl)nc2ncnn2c1N1CCC(C)CC1 [I-9] |  | at most 15%
CCc1c(Cl)nc2ncnn2c1NC1CCCC1 [I-10] | at most 15% | at most 15%
CCc1c(Cl)nc2ncnn2c1N[C@@H](C)C(C)C [I-19] |  | at most 15%
CCc1c(Cl)nc2ncnn2c1N[C@@H](C)C(F)(F)F [I-25] |  | at most 15%
CCCCc1c(Cl)nc2ncnn2c1N1CCC(C)CC1 [I-27] |  | at most 15%
CCCCCCCCc1c(Cl)nc2ncnn2c1N(CCC)CCC [I-49] |  | at most 15%
C=C(C)CN(CC)c1c(C(C)C)c(Cl)nc2ncnn12 [I-60] |  | at most 15%
CC(C)Nc1c(C(C)C)c(Cl)nc2ncnn12 [I-61] | at most 15% | at most 15%
CCN(CC)c1c(C(C)C)c(Cl)nc2ncnn12 [I-62] |  | at most 15%
CC[C@@H](C)Nc1c(C(C)C)c(Cl)nc2ncnn12 [I-66] | at most 15% | 
CC(C)c1c(Cl)nc2ncnn2c1N[C@H](C)C(C)C [I-69] | at most 15% | at most 15%
CC(C)c1c(Cl)nc2ncnn2c1N[C@@H](C)C(F)(F)F [I-76] | at most 15% | 
C=C(C)CN(CC)c1c(C2CCCC2)c(Cl)nc2ncnn12 [I-78] | at most 15% | 
CC1CCN(c2c(C3CCCCC3)c(Cl)nc3ncnn23)CC1 [I-84] | at most 15% | at most 15%
C[C@H](Nc1c(C2CCCCC2)c(Cl)nc2ncnn12)C(F)(F)F [I-100] | at most 15% | 
FC(F)(F)CNc1c(C2CCCCC2)c(Cl)nc2ncnn12 [I-101] | at most 15% | at most 15%
FC(F)(F)Cc1c(Cl)nc2ncnn2c1NC1CCCC1 [I-113] |  | at most 15%
CCCCCCCCc1c(C(F)(F)F)nc2ncnn2c1N [I-133] |  | at most 15%
CC[C@H](C)Nc1c(C2CCCC2)c(Cl)nc2ncnn12 [I-146] | at most 15% | at most 15%
C[C@@H](Nc1c(C2CCCC2)c(Cl)nc2ncnn12)C(C)(C)C [I-153] | at most 15% | at most 15%
C[C@H](Nc1c(C2CCCC2)c(Cl)nc2ncnn12)C(F)(F)F [I-155] | at most 15% | at most 15%

Source: US20050261314A1, “7-Amino triazolopyrimidines for controlling harmful fungi” (priority 2001, published 2005)
